# Data source: PubChem BioAssay AID1259405 (NCATS, 2018)
# Purpose: 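Knock-downs that lift recombinant protein yield in hamster ovary cells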 (primary screen)
# Cell system: Chinese hamster CHO-K1 ovary cells with stable secreted eGFP expression
# Reagent: single siRNA against mouse genes, 0.8 pmol siRNA per well (2 µl of 400 nM stock)
# Timing: 3 days
# Read-out: 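Percent of the per-plate non-targeting control median for intracellular GFP per well by laser scanning cytometry and for cell viability by ATP luminescence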
# Scale: GFP, % of control: higher = more GFP per well, higher productivity; viability (ATP), % of control: higher = more viable cells (more ATP)
# Active means: 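a knock-down is called active if GFP reaches 120% or more of non-targeting control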
# In all, the deposit lists about 50,000 reagents; below is a random part of them. About 4,000 of all reagents (8%) were called active. 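Mouse siRNA library applied to hamster cells; one well for each siRNA.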 Reagents against one gene are numbered here.
gene,reagent no.,"GFP, % of control","viability (ATP), % of control",call
Cask,1,67.2,49.7,inactive
Cadm3,1,110,46,inactive
Cadm3,2,58.3,60.5,inactive
Cadm3,3,89.8,78.5,inactive
Ptprn,1,56.9,79.6,inactive
Ptprn,2,130,97.9,active
Cfap68,1,71,88.2,inactive
Cfap68,2,90.3,70.8,inactive
Cfap68,3,69.5,44,inactive
Epb42,1,71.8,116,inactive
Epb42,2,89.5,177,inactive
Epb42,3,97.5,110,inactive
Tmem69,1,128,96.8,active
Tmem69,2,33.1,18.2,inactive
Tmem69,3,84.6,95.2,inactive
Hcrt,1,50.6,59.7,inactive
Hcrt,2,70.4,75.2,inactive
Hcrt,3,64.6,56.9,inactive
Zfyve19,1,77.4,77,inactive
Zfyve19,2,83.1,87.4,inactive
Zfyve19,3,47.5,83.9,inactive
Klhdc8a,1,72.9,53.8,inactive
Klhdc8a,2,27.6,30.9,inactive
Klhdc8a,3,110,93.4,inactive
Ppp1cc,1,122,106,active
Ppp1cc,2,77.6,85,inactive
Ppp1cc,3,82.9,89.9,inactive
Txndc12,1,88.3,108,inactive
Txndc12,2,88.6,85.2,inactive
Txndc12,3,109,79.9,inactive
Rnaseh2c,1,90.3,74.8,inactive
Rnaseh2c,2,107,89.5,inactive
Rnaseh2c,3,145,58.1,active
Or5ap2,1,73.8,77,inactive
Or5ap2,2,76.7,100,inactive
Or5ap2,3,64.1,39.4,inactive
Arhgef18,1,74,80.8,inactive
Arhgef18,2,107,51.4,inactive
Arhgef18,3,46.5,79.4,inactive
Tm9sf2,1,91.4,72,inactive
Tm9sf2,2,83.2,74.2,inactive
Tm9sf2,3,94.1,80.6,inactive
Myg1,1,95.7,52.5,inactive
Myg1,2,84.3,83.8,inactive
Myg1,3,68.6,75.1,inactive
Slc30a1,1,76.1,109,inactive
Slc30a1,2,44.3,59,inactive
Slc30a1,3,61.6,59.8,inactive
Pdzk1ip1,1,51.1,66.4,inactive
Pdzk1ip1,2,27.3,23.2,inactive
Pdzk1ip1,3,62.2,50.3,inactive
C8b,1,46.8,42.4,inactive
C8b,2,43.9,61.6,inactive
C8b,3,72.1,59.7,inactive
Or10h28,1,41.9,14.8,inactive
Or10h28,2,86.3,91.7,inactive
Or10h28,3,42.6,54.7,inactive
Rnf44,1,130,103,active
Rnf44,2,65.7,66.9,inactive
Rnf44,3,70.3,67.1,inactive
Gbp3,1,92.2,56.4,inactive
Gbp3,2,54.6,81.4,inactive
Gbp3,3,42.9,46.8,inactive
Jag2,1,82.7,87.8,inactive
Jag2,2,85.4,92.5,inactive
Jag2,3,72.7,70.7,inactive
Gdpd4,1,62.7,92,inactive
Gdpd4,2,94.7,79.7,inactive
Gdpd4,3,106,85.7,inactive
Gdap1,1,69.8,50.8,inactive
Gdap1,2,69.9,71.5,inactive
Gdap1,3,59.7,61.9,inactive
Reps2,1,72.5,66.6,inactive
Reps2,2,89.3,82.3,inactive
Reps2,3,38.7,53.6,inactive
Syt10,1,92.5,173,inactive
Syt10,2,86.9,76.3,inactive
Pramel39-ps,1,107,78.1,inactive
Pramel39-ps,2,79.7,66.9,inactive
Pramel39-ps,3,86,78.1,inactive
Atosa,1,75.5,65.7,inactive
Atosa,2,90.5,95.5,inactive
Atosa,3,79.4,87.4,inactive
Tmco5a,1,111,92.3,inactive
Tmco5a,2,59.2,65.9,inactive
Tmco5a,3,81.4,75.3,inactive
Pcdhgc4,1,59,57.8,inactive
Pcdhgc4,2,14.3,26.9,inactive
Pcdhgc4,3,63.2,64.4,inactive
B3gnt8,1,149,82.8,active
B3gnt8,2,64.8,81.4,inactive
B3gnt8,3,64.5,65.4,inactive
Mapk12,1,79.3,49.6,inactive
Ftsj3,1,74.9,70.9,inactive
Ftsj3,2,80.2,64.3,inactive
Ftsj3,3,91.3,66.2,inactive
Or4s2b,1,59.2,80.7,inactive
Or4s2b,2,71.1,81.3,inactive
Or4s2b,3,73,62.8,inactive
Cdh23,1,88.8,95.7,inactive
Cdh23,2,67.2,75.3,inactive
Cdh23,3,75.6,60.9,inactive
Cic,1,85.2,74.4,inactive
Cic,2,65.8,50.3,inactive
Cic,3,109,105,inactive
Ccdc71,1,76.8,25.6,inactive
Ccdc71,2,36.3,40.4,inactive
Ccdc71,3,73.5,72.1,inactive

Only “GFP, % of control” (17 entries from above):
Syt10 #2: 86.9
Pramel39-ps #1: 107
Pramel39-ps #2: 79.7
Pramel39-ps #3: 86
Atosa #1: 75.5
Atosa #2: 90.5
Atosa #3: 79.4
Tmco5a #1: 111
Tmco5a #2: 59.2
Tmco5a #3: 81.4
Pcdhgc4 #1: 59
Pcdhgc4 #2: 14.3
Pcdhgc4 #3: 63.2
B3gnt8 #1: 149
B3gnt8 #2: 64.8
B3gnt8 #3: 64.5
Mapk12: 79.3
